Results are given in words; binding and its absence hold for the method and conditions named. Binding seen in cells or lysates may run through a third protein. Some binding calls cover weakened binding; strength is not graded here.
Columns and labels:
[1] = target: T1, occludin (human (endogenous in HUVECs or HDMECs)) (UniProt Q16625); assay: co-IP; endogenous proteins in endothelial cell lysates; primary antibody overnight at 4 °C, Protein A/G PLUS-Agarose 1 h; IP buffer 50 mM HEPES, 0.1 M NaCl, 0.5 mM EDTA, 1% CHAPS; Western blot; for the occludin co-IP cells treated with WNK463 (1 μM)
T1 sequence: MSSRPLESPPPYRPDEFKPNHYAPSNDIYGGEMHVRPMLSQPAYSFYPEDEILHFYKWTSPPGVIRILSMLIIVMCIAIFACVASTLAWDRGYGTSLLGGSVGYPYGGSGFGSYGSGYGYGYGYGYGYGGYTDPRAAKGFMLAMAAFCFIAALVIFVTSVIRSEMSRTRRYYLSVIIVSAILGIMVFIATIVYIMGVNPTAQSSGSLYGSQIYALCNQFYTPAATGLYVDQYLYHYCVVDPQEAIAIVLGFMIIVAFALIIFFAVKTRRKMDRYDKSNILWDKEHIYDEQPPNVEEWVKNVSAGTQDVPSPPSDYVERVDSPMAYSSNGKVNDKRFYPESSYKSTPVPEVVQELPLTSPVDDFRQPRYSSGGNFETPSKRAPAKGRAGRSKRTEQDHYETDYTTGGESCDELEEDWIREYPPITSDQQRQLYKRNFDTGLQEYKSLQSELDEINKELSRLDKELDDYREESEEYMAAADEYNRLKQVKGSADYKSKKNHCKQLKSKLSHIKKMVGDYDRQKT

By UniProt entry, the sequences of proteins in these tests, tags left out.
UniProt Q9H4A3: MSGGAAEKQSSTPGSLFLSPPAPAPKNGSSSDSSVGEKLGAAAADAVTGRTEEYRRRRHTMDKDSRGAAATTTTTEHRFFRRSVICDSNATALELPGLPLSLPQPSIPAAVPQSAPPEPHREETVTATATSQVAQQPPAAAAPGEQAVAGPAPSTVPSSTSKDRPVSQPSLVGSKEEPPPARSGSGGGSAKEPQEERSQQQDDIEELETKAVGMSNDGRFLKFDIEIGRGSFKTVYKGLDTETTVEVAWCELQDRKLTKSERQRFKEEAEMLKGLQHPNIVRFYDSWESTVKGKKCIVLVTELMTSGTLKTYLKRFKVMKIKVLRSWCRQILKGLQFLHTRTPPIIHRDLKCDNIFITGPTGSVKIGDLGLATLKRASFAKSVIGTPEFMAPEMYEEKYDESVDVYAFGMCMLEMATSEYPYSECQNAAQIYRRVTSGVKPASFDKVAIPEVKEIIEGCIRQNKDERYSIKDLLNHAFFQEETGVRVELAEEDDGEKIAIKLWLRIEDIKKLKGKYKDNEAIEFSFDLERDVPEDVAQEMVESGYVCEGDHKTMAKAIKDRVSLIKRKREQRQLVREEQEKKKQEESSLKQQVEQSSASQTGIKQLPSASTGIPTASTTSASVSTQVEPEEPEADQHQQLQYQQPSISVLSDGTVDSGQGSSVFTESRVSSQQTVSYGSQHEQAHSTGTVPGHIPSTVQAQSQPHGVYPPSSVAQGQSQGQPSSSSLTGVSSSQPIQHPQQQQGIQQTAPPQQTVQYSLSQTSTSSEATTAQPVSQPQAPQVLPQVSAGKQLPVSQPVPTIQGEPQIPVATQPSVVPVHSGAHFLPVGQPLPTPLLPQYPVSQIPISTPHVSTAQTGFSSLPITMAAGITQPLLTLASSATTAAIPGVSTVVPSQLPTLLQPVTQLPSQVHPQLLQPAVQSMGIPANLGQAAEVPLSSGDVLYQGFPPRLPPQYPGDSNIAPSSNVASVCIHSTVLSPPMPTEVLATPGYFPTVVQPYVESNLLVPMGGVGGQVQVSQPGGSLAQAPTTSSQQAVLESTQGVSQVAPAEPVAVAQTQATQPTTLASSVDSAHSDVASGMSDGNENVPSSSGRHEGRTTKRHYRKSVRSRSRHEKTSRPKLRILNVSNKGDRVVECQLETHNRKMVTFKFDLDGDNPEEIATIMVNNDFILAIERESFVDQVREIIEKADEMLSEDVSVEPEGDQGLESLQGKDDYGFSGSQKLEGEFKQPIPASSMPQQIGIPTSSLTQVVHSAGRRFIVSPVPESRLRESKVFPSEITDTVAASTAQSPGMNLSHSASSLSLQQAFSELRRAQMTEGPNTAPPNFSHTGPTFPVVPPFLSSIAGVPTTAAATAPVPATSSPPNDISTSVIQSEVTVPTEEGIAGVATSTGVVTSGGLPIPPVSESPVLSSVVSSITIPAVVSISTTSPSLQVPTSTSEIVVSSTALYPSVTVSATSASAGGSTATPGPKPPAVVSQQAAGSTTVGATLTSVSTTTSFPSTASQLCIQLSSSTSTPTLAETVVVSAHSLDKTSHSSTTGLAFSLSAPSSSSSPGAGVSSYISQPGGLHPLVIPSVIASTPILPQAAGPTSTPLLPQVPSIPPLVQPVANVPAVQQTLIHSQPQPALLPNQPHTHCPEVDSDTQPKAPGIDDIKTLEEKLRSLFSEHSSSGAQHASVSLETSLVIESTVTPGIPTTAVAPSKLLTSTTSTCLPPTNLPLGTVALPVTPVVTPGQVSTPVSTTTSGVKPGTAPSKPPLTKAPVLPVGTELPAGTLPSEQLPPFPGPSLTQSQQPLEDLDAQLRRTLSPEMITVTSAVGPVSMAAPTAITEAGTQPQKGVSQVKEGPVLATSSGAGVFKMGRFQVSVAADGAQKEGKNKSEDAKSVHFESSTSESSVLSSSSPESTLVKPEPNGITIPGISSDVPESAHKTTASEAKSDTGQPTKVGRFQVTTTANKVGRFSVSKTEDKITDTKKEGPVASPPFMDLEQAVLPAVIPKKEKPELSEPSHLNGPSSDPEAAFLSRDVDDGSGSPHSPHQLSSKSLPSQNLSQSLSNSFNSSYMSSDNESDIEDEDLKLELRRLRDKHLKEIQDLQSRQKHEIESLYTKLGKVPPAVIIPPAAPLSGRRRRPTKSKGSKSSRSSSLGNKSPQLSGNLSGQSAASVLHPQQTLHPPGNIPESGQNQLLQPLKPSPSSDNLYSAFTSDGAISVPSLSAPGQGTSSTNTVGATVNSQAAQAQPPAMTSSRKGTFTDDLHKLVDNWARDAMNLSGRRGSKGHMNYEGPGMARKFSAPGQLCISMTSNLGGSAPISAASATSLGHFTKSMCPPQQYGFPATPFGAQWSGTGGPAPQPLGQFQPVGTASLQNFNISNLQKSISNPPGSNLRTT
UniProt Q9HAU4: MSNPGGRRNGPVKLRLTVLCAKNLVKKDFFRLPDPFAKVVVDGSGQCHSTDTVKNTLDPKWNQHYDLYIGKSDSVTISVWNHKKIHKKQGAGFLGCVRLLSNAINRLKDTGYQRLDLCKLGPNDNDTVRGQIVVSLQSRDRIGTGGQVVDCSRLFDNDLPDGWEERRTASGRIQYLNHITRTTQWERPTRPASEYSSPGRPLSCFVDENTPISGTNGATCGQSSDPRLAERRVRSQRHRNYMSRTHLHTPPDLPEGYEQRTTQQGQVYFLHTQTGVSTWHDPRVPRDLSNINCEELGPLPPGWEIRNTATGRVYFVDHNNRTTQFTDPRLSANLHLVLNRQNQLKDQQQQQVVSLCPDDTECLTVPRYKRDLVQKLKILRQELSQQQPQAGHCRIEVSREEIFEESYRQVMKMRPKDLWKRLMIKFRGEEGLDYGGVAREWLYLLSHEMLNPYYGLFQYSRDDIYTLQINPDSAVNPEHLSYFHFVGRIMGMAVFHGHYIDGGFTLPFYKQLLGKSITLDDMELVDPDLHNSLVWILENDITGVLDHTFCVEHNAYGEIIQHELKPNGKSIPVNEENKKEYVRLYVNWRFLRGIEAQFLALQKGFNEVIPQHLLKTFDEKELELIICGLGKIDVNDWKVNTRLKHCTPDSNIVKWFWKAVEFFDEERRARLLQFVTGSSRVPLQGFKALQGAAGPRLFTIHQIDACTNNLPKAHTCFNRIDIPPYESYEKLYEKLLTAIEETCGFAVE
UniProt O95747: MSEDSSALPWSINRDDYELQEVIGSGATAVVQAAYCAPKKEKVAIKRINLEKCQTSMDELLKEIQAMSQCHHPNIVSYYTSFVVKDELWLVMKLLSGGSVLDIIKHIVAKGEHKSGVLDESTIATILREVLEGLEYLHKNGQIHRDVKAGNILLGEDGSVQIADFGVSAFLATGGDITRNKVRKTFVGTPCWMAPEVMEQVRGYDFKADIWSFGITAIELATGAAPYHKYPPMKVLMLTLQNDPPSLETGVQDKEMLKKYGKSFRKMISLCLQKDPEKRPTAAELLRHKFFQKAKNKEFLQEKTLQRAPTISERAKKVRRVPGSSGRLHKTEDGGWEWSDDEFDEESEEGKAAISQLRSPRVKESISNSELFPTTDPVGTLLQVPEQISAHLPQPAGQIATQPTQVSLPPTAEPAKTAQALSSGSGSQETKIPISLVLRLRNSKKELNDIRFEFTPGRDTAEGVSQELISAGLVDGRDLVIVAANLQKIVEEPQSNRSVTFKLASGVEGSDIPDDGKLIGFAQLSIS

[2] = target: protein kinase With No lysine (K) 1 (WNK1) (human (endogenous in HUVECs)) (UniProt Q9H4A3); assay: as above
[3] = target: SMAD Ubiquitination Regulatory Factor 2 (SMURF2) (human (endogenous in HUVECs)) (UniProt Q9HAU4); assay: as above
[4] = target: Oxidative Stress Responsive 1 (OSR1) (human (endogenous in HUVECs)) (UniProt O95747); assay: co-IP; as a1, with the synthetic CCT blocking peptide … (100 µM) co-incubated with the lysate during the immunoprecipitation; only the binder purified

Molecule: SMAD Ubiquitination Regulatory Factor 2 (SMURF2) (from UniProt Q9HAU4 1-748)
- binding [1]: binds
- binding [2]: binds

Molecule: Oxidative Stress Responsive 1 (OSR1) (from UniProt O95747 1-527)
- binding [1]: binds
- binding [3]: binds weakly

Molecule: SAGRRFIVSPVPE [CCT blocking peptide …]
- binding [4]: binds
